Reference: patent US20230382948A1 (KING ABDULLAH UNIVERSITY OF SCIENCE AND TECHNOLOGY, priority 2020, published 2023)
[ ]: non-standard residue; d: D form. Cha = N[C@@H](CC1CCCCC1)C(=O)O

Assay: general procedure: Fmoc solid-phase peptide synthesis; MBHA rink amide resin; TBTU/HOBt/DIPEA
Details: whole synthesis, 220 nm

Substance	final HPLC purity [%]
Ac-IV[Cha]K-NH2	97.50
Ac-Ile-Val-Phe-Lys-NH2 (IVFK; N-acetyl, C-amide)	96.64
